Data taken from PMC7819943, “Rice protein-binding microarrays: a tool to detect cis-acting elements near promoter regions in rice”.
This is one part of the list.

Chains of the proteins cited; added tags and fusions are not shown.
UniProt Q0JBA9, entry or part of it: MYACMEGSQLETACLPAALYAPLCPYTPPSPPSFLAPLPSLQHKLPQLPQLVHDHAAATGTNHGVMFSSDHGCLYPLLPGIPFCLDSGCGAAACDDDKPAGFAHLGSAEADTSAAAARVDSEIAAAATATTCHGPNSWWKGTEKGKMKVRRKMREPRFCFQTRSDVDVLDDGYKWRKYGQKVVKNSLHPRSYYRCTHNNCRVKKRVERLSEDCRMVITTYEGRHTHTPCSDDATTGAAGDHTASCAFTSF

These sequences were tested against OsWRKY34 (Oryza sativa, UniProt Q0JBA9 1-250) (assay: protein-binding microarray (RPBM); PBS, 2% BSA, 51.3 ng/ul salmon testes DNA, 50 uM zinc acetate, 200 nM TF, 25 C, 1 h; high values mean tight binding). Settings: protein: recombinant; tags: N-terminal polyhistidine and DsRed monomer fusion (pET32a); label: CyDye5-dUTP incorporated in the synthesized complementary strand; 3' TTTTT single-stranded linker to array surface; dsDNA, one strand shown.
In short: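 Binding signal is defined as the fluorescence intensity of each feature in arbitrary units, read on an Axon 4000B scanner. Transcription factors with N-terminal polyhistidine and DsRed fusions came from E. coli BL21-CodonPlus and were purified on Ni–NTA. They were incubated at 200 nM for 1 h at 25 °C on a custom Agilent array that had been made double-stranded with Cy5-dUTP, with 50 µM zinc acetate present, and the array was washed.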

| Sequence | binding signal |
| --- | --- |
| TGCTATTGGGATTATTTTTGTTCCCACAACCGCTTTATTTCGGAGTCACCTAGTGCAG | 8300 fluorescence intensity (a.u.) |
| TCATAACCTTCTACAATTTAAATTATCCACCTTTTTTTTCCGGAGTCACCTAGTGCAG | 10700 fluorescence intensity (a.u.) |
| CCACCTGCCAGCCTGTACCCACCCCTCCCTACTGTTATACCGGAGTCACCTAGTGCAG | 8640 fluorescence intensity (a.u.) |
| GTTTATTACGTGGATCTGTGAATTTGTTCATTGTGGACCTCGGAGTCACCTAGTGCAG | 8740 fluorescence intensity (a.u.) |
| TCGCATTTGTTAGTTTTCCATCGCCGATTGATACATACATCGGAGTCACCTAGTGCAG | 9650 fluorescence intensity (a.u.) |
| CGTCGTGGCGGGTTCATCGGGAGGGGATTATTGATTTAGTCGGAGTCACCTAGTGCAG | 21100 fluorescence intensity (a.u.) |
| GAGGGTGGGTGCTTGCTGGCCAGACATTAAAACAATGTGTCGGAGTCACCTAGTGCAG | 9670 fluorescence intensity (a.u.) |
| CGTTACACGTTGCACTGCACTTGTCTCACTGTATTAATTCCGGAGTCACCTAGTGCAG | 9730 fluorescence intensity (a.u.) |
| CATCTTTTGTTCGAATACCTATTTTACTCTTAGCAATCAACGGAGTCACCTAGTGCAG | 10700 fluorescence intensity (a.u.) |
| TCCGATCCGCGCGCTCCCACCACCTGCGCCTCGCATCCTACGGAGTCACCTAGTGCAG | 10300 fluorescence intensity (a.u.) |
| CAACTCCAGGTCAATTAATTCCCTAAATCATTTTTCAGTTCGGAGTCACCTAGTGCAG | 8600 fluorescence intensity (a.u.) |
| CTTACCCACATCTCATTTTTACACTGCAGCACCTGTCAGTCGGAGTCACCTAGTGCAG | 9280 fluorescence intensity (a.u.) |
| TTTTCCGCCACTTACACAGTAGTTACACCTCATTTACACCCGGAGTCACCTAGTGCAG | 11300 fluorescence intensity (a.u.) |
| TCCTCTTCACTCTCCAGCAGCTCAGCTAGTCAGCTCTACACGGAGTCACCTAGTGCAG | 8550 fluorescence intensity (a.u.) |
| GCTTGGATTTCTCATCTCCATTATCTTGCATTCTTGTTCTCGGAGTCACCTAGTGCAG | 8380 fluorescence intensity (a.u.) |
| CTATGATCGCACGCACGCAAACCCTATCCCTATGAGCATTCGGAGTCACCTAGTGCAG | 11800 fluorescence intensity (a.u.) |
| TCATCCCGATCTCCGCCTCCGGGCTCCACCGTGCGCTCCCCGGAGTCACCTAGTGCAG | 9020 fluorescence intensity (a.u.) |
| AATCGTTCGATATTTCGGTGCCACCGAAATTTTCCTGCTTCGGAGTCACCTAGTGCAG | 8110 fluorescence intensity (a.u.) |
| TTAAATTCATCTGTGCCCATAACCACATCTCTGATCTCTCCGGAGTCACCTAGTGCAG | 9970 fluorescence intensity (a.u.) |
| ACTCCCTCCATCTATTTTTTATAGTCATATTTCATCTCGGCGGAGTCACCTAGTGCAG | 8720 fluorescence intensity (a.u.) |
| GTTCGTCTCGCGCCGCTTATTTATTTTTTTTGTTGTGTCCCGGAGTCACCTAGTGCAG | 10300 fluorescence intensity (a.u.) |

For convenience, part of the list above:

| Sequence | binding signal |
| --- | --- |
| TCATCCCGATCTCCGCCTCCGGGCTCCACCGTGCGCTCCCCGGAGTCACCTAGTGCAG | 9020 fluorescence intensity (a.u.) |
| AATCGTTCGATATTTCGGTGCCACCGAAATTTTCCTGCTTCGGAGTCACCTAGTGCAG | 8110 fluorescence intensity (a.u.) |

(continued)

| Sequence | binding signal |
| --- | --- |
| AACATCCTCCTCTTCCGCCGCGCGCTTCCTCGCCACCGTCCGGAGTCACCTAGTGCAG | 8470 fluorescence intensity (a.u.) |
| TCTTTATTTACCTTTTTTTGAGTCGGACTTCTTTTTCTTTCGGAGTCACCTAGTGCAG | 8240 fluorescence intensity (a.u.) |
| ACGCCATAGCCATGCACCATGTCCTCCCTAGTCATTTTTTCGGAGTCACCTAGTGCAG | 8210 fluorescence intensity (a.u.) |
| GCTGCCTCGTCTCTTATTCTTTGCAAGACTCCAGATCTTCCGGAGTCACCTAGTGCAG | 9870 fluorescence intensity (a.u.) |
| CTCTTCAGCAAAAAATTCATGTTCAGCTCGCACAAGCACACGGAGTCACCTAGTGCAG | 8320 fluorescence intensity (a.u.) |
| CTGTTTTATAAGGCCACTTTTACTTCCTGTATATACTTTTCGGAGTCACCTAGTGCAG | 8760 fluorescence intensity (a.u.) |
| ACCCTGTAACCCTCAAGGTCCTTAAGAAAAAAAAAACCGCCGGAGTCACCTAGTGCAG | 9060 fluorescence intensity (a.u.) |
| GTCTTACACTCTTATCTTACTTGCTTACTCACCGAGTCAACGGAGTCACCTAGTGCAG | 8370 fluorescence intensity (a.u.) |
| AGTGAACTTGGTTCTGTGGTTGCATGTATTTGGTGGAGGGCGGAGTCACCTAGTGCAG | 9170 fluorescence intensity (a.u.) |
| CCCCACCACGCCCGAATTTATTGCTACTCTACTACTCCTACGGAGTCACCTAGTGCAG | 9900 fluorescence intensity (a.u.) |
| GCTTTTGGAATCCCCATACTGGACGCAATTATTCGGCACACGGAGTCACCTAGTGCAG | 9020 fluorescence intensity (a.u.) |
| CCTTCTTCCCCTTGCCCCATGTCGCCGGCCGCCTCCTAACCGGAGTCACCTAGTGCAG | 11100 fluorescence intensity (a.u.) |
| GGTACAAAATATATCATATATCGTTCTTTGTTTTTTATGTCGGAGTCACCTAGTGCAG | 8820 fluorescence intensity (a.u.) |
| TCTCTCTCTCCTCGAGTCTCCATGCCGTGCTCGCGCTATTCGGAGTCACCTAGTGCAG | 12400 fluorescence intensity (a.u.) |
| CTCTCTCCGTCTTTACCGTCTCTCCTTCGCCACTCCCCAGCGGAGTCACCTAGTGCAG | 9690 fluorescence intensity (a.u.) |
| ACCTCATGGTCTACCTCGCCGTGGCCGGGCGCACGGCGGCCGGAGTCACCTAGTGCAG | 8240 fluorescence intensity (a.u.) |
| GTCTCCTTCCACATCTCCAATAATGGCCGCTGTCTCAATCCGGAGTCACCTAGTGCAG | 12400 fluorescence intensity (a.u.) |
| TATTCCTCGGCTCTTCTGGCGCCAACCCTGACCTCTCACACGGAGTCACCTAGTGCAG | 14100 fluorescence intensity (a.u.) |
| AGGGGTTATCTGTTTGCTCTTCATTGCCACCTCTGTCATGCGGAGTCACCTAGTGCAG | 9430 fluorescence intensity (a.u.) |
| ATATATTGCGCTGACCGTATGTATTGGGTATACAAAGTACCGGAGTCACCTAGTGCAG | 8310 fluorescence intensity (a.u.) |
| GGATTTGTGTTGCTTCGTTATTAGATTCTAGGTCTACGCTCGGAGTCACCTAGTGCAG | 8380 fluorescence intensity (a.u.) |
